The supplement of paper PMC12067093, “Discovery and optimisation of a covalent ligand for TRIM25 and its application to targeted protein ubiquitination” (Chemical Science, 2025)
The other results are listed elsewhere or left out.

Protein sequences, listed by entry. Tags and fused reporters are not part of them. Lines headed by an entry give the natural chain unless they say otherwise; changes in a name come on top.
UniProt P78527, whole entry, looked up: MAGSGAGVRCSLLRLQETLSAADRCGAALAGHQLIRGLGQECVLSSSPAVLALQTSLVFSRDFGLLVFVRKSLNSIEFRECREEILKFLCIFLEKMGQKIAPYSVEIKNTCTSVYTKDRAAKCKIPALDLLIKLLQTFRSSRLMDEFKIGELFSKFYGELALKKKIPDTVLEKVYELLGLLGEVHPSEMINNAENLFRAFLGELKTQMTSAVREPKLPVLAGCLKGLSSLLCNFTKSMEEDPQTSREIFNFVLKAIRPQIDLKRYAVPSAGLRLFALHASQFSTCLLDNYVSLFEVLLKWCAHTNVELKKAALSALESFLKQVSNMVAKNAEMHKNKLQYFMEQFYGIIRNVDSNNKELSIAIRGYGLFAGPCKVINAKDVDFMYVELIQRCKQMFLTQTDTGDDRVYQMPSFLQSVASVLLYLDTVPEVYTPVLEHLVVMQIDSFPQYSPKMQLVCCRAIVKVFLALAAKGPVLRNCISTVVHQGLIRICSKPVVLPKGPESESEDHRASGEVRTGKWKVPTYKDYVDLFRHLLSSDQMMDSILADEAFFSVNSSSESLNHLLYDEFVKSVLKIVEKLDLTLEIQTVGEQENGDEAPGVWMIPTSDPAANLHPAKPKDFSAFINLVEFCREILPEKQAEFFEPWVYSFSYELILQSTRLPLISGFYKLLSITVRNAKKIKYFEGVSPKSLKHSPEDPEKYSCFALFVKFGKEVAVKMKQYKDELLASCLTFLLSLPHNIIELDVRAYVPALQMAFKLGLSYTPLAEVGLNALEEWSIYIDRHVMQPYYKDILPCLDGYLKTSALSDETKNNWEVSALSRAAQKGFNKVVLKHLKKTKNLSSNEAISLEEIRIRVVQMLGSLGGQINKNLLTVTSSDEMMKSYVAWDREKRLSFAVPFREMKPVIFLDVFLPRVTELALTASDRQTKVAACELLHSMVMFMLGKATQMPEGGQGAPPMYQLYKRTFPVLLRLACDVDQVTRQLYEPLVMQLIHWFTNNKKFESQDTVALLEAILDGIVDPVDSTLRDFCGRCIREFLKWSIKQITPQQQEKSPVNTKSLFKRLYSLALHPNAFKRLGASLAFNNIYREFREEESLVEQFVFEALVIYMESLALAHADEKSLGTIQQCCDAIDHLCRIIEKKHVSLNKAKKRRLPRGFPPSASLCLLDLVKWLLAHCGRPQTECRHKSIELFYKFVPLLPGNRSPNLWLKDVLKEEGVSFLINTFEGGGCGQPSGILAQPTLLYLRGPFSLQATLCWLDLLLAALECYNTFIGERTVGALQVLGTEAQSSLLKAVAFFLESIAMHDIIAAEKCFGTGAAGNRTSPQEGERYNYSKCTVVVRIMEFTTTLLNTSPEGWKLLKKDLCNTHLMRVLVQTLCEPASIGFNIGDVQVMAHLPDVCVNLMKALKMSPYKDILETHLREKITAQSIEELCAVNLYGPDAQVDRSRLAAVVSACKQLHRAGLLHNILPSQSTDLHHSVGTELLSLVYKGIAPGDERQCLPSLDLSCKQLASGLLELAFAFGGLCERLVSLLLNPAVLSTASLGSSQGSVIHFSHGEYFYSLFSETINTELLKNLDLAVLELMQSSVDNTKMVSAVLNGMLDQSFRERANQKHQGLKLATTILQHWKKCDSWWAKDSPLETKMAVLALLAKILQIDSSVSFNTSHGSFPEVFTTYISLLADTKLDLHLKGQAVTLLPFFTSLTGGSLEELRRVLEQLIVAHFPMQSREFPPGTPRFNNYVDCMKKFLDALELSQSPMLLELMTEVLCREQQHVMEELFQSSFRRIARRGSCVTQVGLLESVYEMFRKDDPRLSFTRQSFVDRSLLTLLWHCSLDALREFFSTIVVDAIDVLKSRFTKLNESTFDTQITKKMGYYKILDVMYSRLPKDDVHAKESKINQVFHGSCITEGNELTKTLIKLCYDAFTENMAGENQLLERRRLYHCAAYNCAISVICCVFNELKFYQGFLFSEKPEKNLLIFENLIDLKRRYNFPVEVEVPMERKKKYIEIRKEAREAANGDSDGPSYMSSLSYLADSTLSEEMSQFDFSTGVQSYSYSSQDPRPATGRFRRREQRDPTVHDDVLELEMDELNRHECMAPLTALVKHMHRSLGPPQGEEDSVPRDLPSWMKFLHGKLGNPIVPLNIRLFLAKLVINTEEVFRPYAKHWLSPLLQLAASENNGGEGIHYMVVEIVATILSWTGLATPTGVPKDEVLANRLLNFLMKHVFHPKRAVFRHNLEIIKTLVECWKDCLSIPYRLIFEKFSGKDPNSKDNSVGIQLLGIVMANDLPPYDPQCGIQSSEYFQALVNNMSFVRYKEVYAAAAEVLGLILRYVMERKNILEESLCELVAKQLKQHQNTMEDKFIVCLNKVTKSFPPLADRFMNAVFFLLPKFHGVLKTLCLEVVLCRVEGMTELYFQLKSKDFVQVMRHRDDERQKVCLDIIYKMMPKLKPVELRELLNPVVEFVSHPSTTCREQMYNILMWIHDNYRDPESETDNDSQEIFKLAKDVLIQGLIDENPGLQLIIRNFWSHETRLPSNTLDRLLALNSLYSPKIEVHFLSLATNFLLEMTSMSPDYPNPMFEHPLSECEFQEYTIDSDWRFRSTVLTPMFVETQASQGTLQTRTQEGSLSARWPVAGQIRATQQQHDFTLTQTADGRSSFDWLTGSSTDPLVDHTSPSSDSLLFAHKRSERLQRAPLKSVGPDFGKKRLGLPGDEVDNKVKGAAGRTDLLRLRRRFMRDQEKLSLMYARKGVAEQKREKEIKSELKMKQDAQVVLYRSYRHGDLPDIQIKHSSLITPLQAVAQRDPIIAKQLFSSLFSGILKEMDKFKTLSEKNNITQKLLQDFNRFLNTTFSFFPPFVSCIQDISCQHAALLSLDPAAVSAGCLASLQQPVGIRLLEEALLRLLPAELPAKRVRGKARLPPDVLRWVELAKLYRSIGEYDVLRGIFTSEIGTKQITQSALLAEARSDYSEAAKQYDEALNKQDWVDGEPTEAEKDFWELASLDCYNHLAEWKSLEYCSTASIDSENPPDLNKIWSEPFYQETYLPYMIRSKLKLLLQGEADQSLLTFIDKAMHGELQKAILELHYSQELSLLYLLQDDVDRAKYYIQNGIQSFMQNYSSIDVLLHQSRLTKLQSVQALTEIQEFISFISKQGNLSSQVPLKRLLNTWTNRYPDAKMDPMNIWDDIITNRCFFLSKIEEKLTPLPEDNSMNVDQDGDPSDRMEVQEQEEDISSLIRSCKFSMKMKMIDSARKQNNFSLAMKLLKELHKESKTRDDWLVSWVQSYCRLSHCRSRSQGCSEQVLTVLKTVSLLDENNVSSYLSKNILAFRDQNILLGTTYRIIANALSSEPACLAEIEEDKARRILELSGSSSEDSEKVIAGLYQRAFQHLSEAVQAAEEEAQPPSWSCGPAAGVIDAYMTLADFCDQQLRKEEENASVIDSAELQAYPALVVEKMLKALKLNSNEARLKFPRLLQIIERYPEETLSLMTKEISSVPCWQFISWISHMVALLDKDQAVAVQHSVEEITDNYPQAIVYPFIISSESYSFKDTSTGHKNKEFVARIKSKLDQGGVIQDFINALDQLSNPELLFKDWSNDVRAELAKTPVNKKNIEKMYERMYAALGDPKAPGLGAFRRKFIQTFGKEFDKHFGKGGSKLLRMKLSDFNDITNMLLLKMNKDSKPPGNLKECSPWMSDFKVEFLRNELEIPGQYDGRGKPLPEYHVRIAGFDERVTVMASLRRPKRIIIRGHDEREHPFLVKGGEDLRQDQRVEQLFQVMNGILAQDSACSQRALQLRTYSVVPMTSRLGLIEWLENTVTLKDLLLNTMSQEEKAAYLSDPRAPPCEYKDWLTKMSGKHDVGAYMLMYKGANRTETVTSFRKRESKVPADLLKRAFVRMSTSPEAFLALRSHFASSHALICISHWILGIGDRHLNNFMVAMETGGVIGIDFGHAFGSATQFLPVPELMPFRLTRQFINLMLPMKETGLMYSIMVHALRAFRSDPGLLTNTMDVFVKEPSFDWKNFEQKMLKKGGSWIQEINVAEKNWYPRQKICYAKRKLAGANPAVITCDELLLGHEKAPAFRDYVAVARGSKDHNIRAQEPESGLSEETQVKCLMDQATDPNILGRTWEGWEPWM
UniProt O14744, whole entry, looked up: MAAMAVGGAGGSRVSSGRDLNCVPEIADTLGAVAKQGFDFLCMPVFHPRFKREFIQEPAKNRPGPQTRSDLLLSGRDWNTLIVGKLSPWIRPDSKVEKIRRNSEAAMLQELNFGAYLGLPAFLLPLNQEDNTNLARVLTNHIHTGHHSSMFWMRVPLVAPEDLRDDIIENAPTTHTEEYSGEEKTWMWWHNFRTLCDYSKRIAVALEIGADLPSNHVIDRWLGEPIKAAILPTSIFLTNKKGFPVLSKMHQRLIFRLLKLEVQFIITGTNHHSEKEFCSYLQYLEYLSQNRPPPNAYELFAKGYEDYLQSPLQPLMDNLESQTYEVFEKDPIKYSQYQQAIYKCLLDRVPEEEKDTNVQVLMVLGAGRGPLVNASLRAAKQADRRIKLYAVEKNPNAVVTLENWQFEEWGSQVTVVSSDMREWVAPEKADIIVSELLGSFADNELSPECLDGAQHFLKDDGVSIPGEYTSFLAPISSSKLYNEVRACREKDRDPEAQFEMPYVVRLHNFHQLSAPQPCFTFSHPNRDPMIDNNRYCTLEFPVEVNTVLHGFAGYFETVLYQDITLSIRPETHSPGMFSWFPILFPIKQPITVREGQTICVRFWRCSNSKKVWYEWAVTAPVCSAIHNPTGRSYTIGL
UniProt Q05655: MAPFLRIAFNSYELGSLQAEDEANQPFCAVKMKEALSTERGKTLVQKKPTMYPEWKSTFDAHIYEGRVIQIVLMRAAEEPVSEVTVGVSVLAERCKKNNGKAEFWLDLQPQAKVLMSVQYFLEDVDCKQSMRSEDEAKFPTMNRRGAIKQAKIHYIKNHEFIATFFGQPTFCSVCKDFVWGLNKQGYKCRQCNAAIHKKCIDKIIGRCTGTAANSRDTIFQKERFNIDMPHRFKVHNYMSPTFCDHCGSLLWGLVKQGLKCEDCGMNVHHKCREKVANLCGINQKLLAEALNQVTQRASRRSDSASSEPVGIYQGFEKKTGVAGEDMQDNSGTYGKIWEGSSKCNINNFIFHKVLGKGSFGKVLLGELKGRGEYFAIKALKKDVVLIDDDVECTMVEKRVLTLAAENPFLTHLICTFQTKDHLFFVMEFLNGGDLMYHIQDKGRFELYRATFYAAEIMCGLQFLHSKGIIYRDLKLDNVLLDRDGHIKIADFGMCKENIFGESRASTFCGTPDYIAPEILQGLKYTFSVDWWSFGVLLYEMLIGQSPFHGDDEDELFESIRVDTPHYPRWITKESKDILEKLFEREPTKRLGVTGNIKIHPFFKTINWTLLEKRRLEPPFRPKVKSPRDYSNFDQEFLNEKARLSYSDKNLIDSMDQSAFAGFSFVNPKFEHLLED
UniProt P10644, whole entry, looked up: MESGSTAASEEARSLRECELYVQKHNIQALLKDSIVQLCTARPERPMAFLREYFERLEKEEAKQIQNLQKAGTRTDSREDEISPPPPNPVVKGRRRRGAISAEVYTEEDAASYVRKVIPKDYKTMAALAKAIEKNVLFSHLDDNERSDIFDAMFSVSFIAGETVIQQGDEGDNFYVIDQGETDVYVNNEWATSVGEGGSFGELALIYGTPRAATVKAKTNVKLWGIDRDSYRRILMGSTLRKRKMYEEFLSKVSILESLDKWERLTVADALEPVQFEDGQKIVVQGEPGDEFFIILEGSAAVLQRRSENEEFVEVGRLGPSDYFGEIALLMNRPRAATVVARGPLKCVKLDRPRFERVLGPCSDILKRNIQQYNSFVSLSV
UniProt Q99873, whole entry, looked up: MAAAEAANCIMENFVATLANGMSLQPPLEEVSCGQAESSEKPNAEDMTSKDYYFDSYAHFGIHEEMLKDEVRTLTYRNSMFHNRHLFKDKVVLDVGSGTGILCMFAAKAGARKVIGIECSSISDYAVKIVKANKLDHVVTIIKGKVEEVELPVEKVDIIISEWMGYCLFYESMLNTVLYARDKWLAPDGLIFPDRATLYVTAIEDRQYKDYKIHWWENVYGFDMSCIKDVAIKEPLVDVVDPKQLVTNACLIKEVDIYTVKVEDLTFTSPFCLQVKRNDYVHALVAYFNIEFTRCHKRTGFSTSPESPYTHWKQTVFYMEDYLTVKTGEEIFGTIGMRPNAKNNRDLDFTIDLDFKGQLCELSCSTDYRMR
UniProt P13861, whole entry, looked up: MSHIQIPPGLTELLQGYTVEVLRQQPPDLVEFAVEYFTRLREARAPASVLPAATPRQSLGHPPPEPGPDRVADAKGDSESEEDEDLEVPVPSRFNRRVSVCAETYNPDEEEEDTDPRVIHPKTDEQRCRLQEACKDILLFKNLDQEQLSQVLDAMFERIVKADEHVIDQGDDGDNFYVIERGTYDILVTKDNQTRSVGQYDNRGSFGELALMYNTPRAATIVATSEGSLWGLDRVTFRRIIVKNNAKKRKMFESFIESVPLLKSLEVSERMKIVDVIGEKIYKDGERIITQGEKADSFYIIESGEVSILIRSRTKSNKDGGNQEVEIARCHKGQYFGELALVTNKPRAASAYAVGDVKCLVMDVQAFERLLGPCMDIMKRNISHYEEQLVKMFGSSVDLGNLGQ

Compound: CC1Cc2ccccc2N1C(=O)C1CCCN(C1)C(=O)CCl (mixture of isomers) [TRIM25 ligand 11 (diastereomer mixture)]
Assay: probe-labelled cysteine peptide fold change vs DMSO (competition) (log2 fold change); higher = less target engagement (more negative = stronger competition)
Conditions: THP-1, incubation time: 4 h
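Note: competitive chemoproteomic profiling in live THP-1 cells with an iodoacetamide desthiobiotin (IA-DTB) probe, comparing probe-labelled peptide intensities in compound-treated cells against DMSO-treated controls.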

| Target | probe-labelled cysteine peptide fold change (10 µM) | probe-labelled cysteine peptide fold change (50 µM) |
| --- | --- | --- |
| PRKDC_P78527_3683_ECSPWMSDFKVEFLR (UniProt P78527) | -0.518 | -0.397 |
| PRPF38A_Q8NAV1_158_VCDIILPR (UniProt Q8NAV1) | 0.0425 | -0.0773 |
| PRMT5_O14744_518_LHNFHQLSAPQPCFTFSHPNR (UniProt O14744) | -0.101 | 0.0378 |
| PRPF6_O94906_837_KCEHDPHVLLAVAK (UniProt O94906) | -0.0261 | 0.0306 |
| PRIM2_P49643_424_GTHYQVACQK (UniProt P49643) | -0.0111 | 0.00742 |
| PRKCD_Q05655_393_DVVLIDDDVECTMVEK (UniProt Q05655) | 0.0846 | 0.00931 |
| PRKCD_Q05655_208_CTGTAANSR (UniProt Q05655) | -0.0444 | -0.0392 |
| PREX1_Q8TCU6_963_QAPLEPHPLCGLDFCPTNCHINLMEVSYPK (UniProt Q8TCU6) | 0.168 | -0.031 |
| PRKDC_P78527_2342_KNILEESLCELVAK (UniProt P78527) | -0.115 | 0.0649 |
| PRKRA_O75569_106_ANASICFAVPDPLMPDPSK (UniProt O75569) | -0.0649 | -0.118 |
| PRKAR1A_P10644_18_ECELYVQK (UniProt P10644) | -0.0536 | -0.116 |
| PRUNE1_Q86TP1_180_QTAALLHGTIILDCVNMDLK (UniProt Q86TP1) | 0.326 | 0.166 |
| PRKAR1B_P31321_18_GCELYVQLHGIQQVLK (UniProt P31321) | 0.0752 | -0.251 |
| PRPF6_O94906_739_CPHSTPLWLLLSR (UniProt O94906) | 0.0353 | -0.143 |
| PRMT9_Q6P2P2_476_IQSISVLGLECEMDVAK (UniProt Q6P2P2) | -0.0169 | -0.0155 |
| PRKCD_Q05655_509_ASTFCGTPDYIAPEILQGLK (UniProt Q05655) | 0.31 | -0.0381 |
| PRPS2_P11908_165_NCIIVSPDAGGAKR (UniProt P11908) | -0.00324 | 0.104 |
| PRR12_Q9ULL5_112_FVPLTSICFPDSLLQDEER (UniProt Q9ULL5) | -0.151 | 0.122 |
| PRMT1_Q99873_119_VIGIECSSISDYAVK (UniProt Q99873) | 0.125 | 0.262 |

| Target | probe-labelled cysteine peptide fold change (10 µM) | probe-labelled cysteine peptide fold change (50 µM) |
| --- | --- | --- |
| PRKAR2A_P13861_134_LQEACK (UniProt P13861) | -0.0221 | -0.157 |
| PRKDC_P78527_1742_FNNYVDCMKK (UniProt P78527) | -0.327 | -0.152 |
| PRKAR1A_P10644_362_VLGPCSDILK (UniProt P10644) | -0.0417 | -0.0498 |
| PRMT7_Q9NVM4_639+640_RPGQSHAAVLWMEYHLTPECTLSTGLLEPADPEGGCCWNPHCK (UniProt Q9NVM4) | -0.113 | -0.0846 |
| PRMT5_O14744_622_KVWYEWAVTAPVCSAIHNPTGR (UniProt O14744) | -0.00844 | 0.136 |
| PRKDC_P78527_111_NTCTSVYTK (UniProt P78527) | -0.0678 | -0.0327 |
| PRKD2_Q9BZL6_615_HPGIVNLECMFETPEK (UniProt Q9BZL6) | 0.142 | 0.17 |
| PRKCB_P05771_132+135_CDTCMMNVHKR (UniProt P05771) | -0.439 | -0.327 |
| PRPF8_Q6P2Q9_1896_GSELQLPFQACLK (UniProt Q6P2Q9) | 0.0462 | 0.133 |
| PRPF4_O43172_299_DVNLASCAADGSVK (UniProt O43172) | -0.0227 | -0.0888 |
| PRKCSH_P14314_39_GVSLTNHHFYDESKPFTCLDGSATIPFDQVNDDYCDCK (UniProt P14314) | -0.422 | -0.404 |
| PREX1_Q8TCU6_968+972_QAPLEPHPLCGLDFCPTNCHINLMEVSYPK (UniProt Q8TCU6) | -0.15 | -0.341 |
| PRKDC_P78527_90_FLCIFLEK (UniProt P78527) | -0.0507 | -0.038 |
| PRMT1_Q99873_272_VEDLTFTSPFCLQVK (UniProt Q99873) | 0.262 | 0.192 |
| PRKDC_P78527_1455_LAAVVSACK (UniProt P78527) | 0.0308 | -0.223 |
| PRKDC_P78527_1183_WLLAHCGRPQTECR (UniProt P78527) | -0.04 | 0.321 |
| PRPF3_O43395_37_VLGFSEPTVVTAALNCVGK (UniProt O43395) | 0.0367 | -0.00147 |
| PRKCQ_Q04759_281_VANLCGINQK (UniProt Q04759) | -0.0428 | -0.126 |
| PRMT1_Q99873_119_KVIGIECSSISDYAVK (UniProt Q99873) | -0.0063 | 0.0865 |

Reprinted at random: 2 entries already listed, in no set order.

| Target | probe-labelled cysteine peptide fold change (10 µM) | probe-labelled cysteine peptide fold change (50 µM) |
| --- | --- | --- |
| PRMT7_Q9NVM4_639+640_RPGQSHAAVLWMEYHLTPECTLSTGLLEPADPEGGCCWNPHCK (UniProt Q9NVM4) | -0.113 | -0.0846 |
| PREX1_Q8TCU6_968+972_QAPLEPHPLCGLDFCPTNCHINLMEVSYPK (UniProt Q8TCU6) | -0.15 | -0.341 |
